In doi:10.1101/2020.10.04.325480:
No constants are given. Whether binding was seen depends on the method and setting. Binding seen in cells or lysates may run through a third protein. Some results given as binding are weak or reduced against the parent protein; the word gives no strength.

Sequences of proteins named here, by UniProt entry; tags and fusion partners are left off. Residues count along the entry.
UniProt Q96SN7: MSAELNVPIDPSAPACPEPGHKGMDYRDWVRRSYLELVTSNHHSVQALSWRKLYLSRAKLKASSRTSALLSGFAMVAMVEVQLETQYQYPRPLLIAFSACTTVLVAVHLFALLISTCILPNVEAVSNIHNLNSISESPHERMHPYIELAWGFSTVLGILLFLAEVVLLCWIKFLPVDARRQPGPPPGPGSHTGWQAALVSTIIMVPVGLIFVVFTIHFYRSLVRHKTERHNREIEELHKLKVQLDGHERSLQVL
UniProt Q96D31: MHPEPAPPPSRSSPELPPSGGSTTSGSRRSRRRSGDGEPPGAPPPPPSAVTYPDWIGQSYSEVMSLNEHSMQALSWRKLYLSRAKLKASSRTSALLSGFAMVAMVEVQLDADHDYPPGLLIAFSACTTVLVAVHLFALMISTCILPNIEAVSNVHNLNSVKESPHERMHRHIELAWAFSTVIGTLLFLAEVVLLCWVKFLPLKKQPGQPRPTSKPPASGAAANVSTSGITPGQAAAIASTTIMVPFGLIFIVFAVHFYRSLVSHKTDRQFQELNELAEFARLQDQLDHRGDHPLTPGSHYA
UniProt Q13586, residues 23-685: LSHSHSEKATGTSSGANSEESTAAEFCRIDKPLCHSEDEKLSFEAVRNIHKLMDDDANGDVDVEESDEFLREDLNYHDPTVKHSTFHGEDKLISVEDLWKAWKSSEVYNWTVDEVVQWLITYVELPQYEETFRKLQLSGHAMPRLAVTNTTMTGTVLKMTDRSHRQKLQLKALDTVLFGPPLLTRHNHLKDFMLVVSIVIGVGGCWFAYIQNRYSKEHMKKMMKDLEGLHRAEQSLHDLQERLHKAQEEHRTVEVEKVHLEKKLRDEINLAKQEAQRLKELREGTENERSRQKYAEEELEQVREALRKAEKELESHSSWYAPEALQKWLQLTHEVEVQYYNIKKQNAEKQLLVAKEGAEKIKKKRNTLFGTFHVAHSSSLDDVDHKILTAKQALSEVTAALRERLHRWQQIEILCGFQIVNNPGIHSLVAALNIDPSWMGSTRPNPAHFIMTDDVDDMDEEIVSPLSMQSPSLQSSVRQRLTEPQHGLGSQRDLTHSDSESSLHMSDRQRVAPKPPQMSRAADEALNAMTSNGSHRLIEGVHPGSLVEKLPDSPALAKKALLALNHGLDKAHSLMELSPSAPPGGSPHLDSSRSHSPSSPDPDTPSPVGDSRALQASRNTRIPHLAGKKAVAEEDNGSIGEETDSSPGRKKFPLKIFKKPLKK
UniProt Q9P246, residues 15-746: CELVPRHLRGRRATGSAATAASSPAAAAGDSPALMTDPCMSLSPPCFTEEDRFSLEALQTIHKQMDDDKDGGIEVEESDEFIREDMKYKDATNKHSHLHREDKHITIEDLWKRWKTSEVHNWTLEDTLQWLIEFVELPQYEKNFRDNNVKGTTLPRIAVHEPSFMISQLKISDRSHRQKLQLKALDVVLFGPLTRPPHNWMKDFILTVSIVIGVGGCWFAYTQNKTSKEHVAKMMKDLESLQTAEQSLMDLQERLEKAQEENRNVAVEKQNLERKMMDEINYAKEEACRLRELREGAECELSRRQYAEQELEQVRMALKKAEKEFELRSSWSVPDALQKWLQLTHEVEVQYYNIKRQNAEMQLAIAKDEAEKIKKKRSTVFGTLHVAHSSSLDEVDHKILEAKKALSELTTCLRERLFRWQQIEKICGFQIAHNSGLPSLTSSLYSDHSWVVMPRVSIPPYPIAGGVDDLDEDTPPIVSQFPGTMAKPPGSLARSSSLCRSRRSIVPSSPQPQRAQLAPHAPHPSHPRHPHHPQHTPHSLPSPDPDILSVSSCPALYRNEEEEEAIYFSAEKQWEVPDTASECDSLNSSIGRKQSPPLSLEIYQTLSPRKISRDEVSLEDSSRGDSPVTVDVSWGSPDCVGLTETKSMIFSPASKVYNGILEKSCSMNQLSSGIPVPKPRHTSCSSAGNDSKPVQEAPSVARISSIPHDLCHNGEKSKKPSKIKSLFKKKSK

Legend:
CFP-Orai2 = CFP-Orai2 (UniProt Q96SN7); assay: FRET or BRET
CFP-Orai1 = CFP-Orai1 (UniProt Q96D31); assay: FRET or BRET

binding (CFP-Orai2)	binding (CFP-Orai1)	Substance
binds	–	STIM1-YFP (from UniProt Q13586 23-685)
binds	binds	STIM2-YFP (from UniProt Q9P246 15-746)
